# Screening data, single-dose tests

Sequences of proteins named here, by UniProt entry; tags and fusion partners are left off. Residues count along the entry.
UniProt P9WPC5, whole entry: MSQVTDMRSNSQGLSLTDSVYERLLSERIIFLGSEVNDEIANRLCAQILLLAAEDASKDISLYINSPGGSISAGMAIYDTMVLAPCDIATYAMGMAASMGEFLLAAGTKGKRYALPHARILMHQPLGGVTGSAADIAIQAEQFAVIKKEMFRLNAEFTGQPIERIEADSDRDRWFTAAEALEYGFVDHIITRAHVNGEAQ
UniProt P9WPC3, whole entry partner: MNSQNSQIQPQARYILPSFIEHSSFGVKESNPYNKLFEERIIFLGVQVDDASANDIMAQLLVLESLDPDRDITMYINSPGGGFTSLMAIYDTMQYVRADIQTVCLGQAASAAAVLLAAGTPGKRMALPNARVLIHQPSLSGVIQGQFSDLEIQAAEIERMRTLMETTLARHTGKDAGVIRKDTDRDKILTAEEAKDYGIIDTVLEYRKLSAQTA
UniProt Q8IDJ8, 1-583: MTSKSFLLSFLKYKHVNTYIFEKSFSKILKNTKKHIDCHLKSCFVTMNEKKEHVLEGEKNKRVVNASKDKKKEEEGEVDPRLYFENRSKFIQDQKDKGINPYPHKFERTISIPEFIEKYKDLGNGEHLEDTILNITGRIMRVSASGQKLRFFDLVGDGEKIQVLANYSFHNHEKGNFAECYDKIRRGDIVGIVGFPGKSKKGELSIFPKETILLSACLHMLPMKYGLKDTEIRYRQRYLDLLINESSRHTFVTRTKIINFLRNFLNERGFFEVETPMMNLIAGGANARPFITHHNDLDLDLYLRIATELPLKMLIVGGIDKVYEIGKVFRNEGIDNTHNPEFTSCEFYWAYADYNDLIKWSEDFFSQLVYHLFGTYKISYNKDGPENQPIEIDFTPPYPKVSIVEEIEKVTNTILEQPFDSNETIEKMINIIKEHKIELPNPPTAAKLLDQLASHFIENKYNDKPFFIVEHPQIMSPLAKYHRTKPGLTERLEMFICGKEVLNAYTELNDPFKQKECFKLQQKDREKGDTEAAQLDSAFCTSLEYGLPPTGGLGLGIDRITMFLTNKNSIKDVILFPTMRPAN
UniProt P9WFT3, whole entry: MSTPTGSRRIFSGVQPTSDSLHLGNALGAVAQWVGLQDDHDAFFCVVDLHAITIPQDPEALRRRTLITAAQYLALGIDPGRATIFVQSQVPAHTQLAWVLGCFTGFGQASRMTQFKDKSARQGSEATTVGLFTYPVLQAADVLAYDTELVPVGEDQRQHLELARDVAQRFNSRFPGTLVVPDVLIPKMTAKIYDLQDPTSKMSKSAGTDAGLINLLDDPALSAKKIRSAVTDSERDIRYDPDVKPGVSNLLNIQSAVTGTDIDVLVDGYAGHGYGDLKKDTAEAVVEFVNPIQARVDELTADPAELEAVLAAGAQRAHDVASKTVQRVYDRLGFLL
UniProt A4I591, 1-473: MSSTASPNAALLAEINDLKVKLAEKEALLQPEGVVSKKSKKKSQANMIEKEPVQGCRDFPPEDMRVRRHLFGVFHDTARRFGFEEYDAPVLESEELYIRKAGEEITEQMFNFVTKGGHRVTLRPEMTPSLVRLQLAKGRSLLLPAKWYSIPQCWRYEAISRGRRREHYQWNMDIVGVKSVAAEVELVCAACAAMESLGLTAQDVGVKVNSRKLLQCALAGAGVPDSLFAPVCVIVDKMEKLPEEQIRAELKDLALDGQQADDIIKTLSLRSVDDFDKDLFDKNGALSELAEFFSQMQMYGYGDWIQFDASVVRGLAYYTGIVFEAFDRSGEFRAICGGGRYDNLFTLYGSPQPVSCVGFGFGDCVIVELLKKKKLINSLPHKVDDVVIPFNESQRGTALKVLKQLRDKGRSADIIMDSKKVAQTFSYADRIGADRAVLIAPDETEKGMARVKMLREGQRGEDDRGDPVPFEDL
UniProt Q4DA54, 1-478: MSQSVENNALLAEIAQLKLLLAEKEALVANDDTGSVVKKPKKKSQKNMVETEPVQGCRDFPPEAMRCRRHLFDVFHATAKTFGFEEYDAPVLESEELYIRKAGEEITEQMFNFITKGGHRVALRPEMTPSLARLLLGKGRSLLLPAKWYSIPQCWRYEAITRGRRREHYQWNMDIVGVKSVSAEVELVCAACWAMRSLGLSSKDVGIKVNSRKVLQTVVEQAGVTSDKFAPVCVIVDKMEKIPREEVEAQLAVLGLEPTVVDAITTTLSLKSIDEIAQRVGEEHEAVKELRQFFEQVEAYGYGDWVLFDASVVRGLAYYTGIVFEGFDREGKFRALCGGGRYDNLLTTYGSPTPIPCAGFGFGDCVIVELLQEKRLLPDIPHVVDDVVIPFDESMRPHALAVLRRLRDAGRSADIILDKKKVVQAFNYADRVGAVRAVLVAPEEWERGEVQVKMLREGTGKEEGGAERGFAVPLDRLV

ClpP1P2: 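ClpP1P2, Mycobacterium tuberculosis (UniProt P9WPC5 and UniProt P9WPC3). Protease assay of ClpP1P2, read by the AMC dye that it sets free. Compounds at 50 µM. Higher reads as stronger inhibition, judged from the few compounds that gave an IC50. Most other retested compounds had strongly negative values. Size under these conditions: about 69,000 compounds, about 10 of them at 50% or above in at least one test.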
PfKRS1: 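Lysine-tRNA ligase, Plasmodium falciparum 3D7 (UniProt Q8IDJ8). Enzyme assay of the cytosolic lysyl-tRNA synthetase in 384-well plates, read by luminescence. Tested at 30 µM. Direction is inferred from only a few compounds that gave an IC50; most scored high, so higher reads as stronger inhibition. About 69,000 compounds were tested under these conditions; 0.071% (about 49) showed 50% or more at least once.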
MtTrpRS: 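Enzyme assay of tryptophanyl-tRNA synthetase; the read-out is not stated. Target: Tryptophan-tRNA ligase, Mycobacterium tuberculosis (UniProt P9WFT3). Concentration: 10 µM. Higher most likely means stronger inhibition; the record gives no direction and few retests gave an IC50. Size under these conditions: about 65,000 compounds, about 64 of them at 50% or above in at least one test.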
LiHisRS: 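Histidine-tRNA ligase, Leishmania infantum (UniProt A4I591). Enzyme assay of histidyl-tRNA synthetase; the read-out is not stated. Compounds at 30 µM. Direction is inferred from retests: higher values go with stronger inhibition. The assay is labelled LdHisRS but filed under L. infantum. About 69,000 compounds were tested under these conditions; 0.6% (about 410) showed 50% or more at least once.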
TcHisRS: 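Enzyme assay of histidyl-tRNA synthetase; the read-out is not stated. Target: Histidine-tRNA ligase, Trypanosoma cruzi CL Brener (UniProt Q4DA54). Tested at 30 µM. Direction is inferred from retests: higher values go with stronger inhibition. Size under these conditions: about 69,000 compounds, about 31 of them at 50% or above in at least one test.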
Leishmania in macrophages: 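Cell assay of Leishmania donovani living inside macrophages; the read-out is not stated. Concentration: 30 µM. Higher reads as stronger inhibition (inferred: compounds with an IC50 in retests scored well above the rest). Size under these conditions: about 69,000 compounds, about 1,000 of them at 50% or above in at least one test.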

The filed quantity is “Percent Effect” (%). The controls that fix the scale are not given in the record; negative values are as filed. This is an unselected part of the compounds tested. A dash means the value is not listed here; it may have been measured.

structure	ClpP1P2	PfKRS1	MtTrpRS	LiHisRS	TcHisRS	Leishmania in macrophages
O=C(O)C(F)(F)F.O=C(O)C(F)(F)F.c1cncc(N2CCCC3(CCN(CCN4CCCC4)CC3)C2)c1	-	-	-	-	-	26.04
O=C(c1ccc2[nH]ccc2c1)N1CC[C@@H]2CN(CC3CC3)CCO[C@@H]2C1	3.589	-1.292	-3.679	12	6.186	-
CN(C(=O)COC1CCCC1)C1CCN(CC2CCOC2)CC1 (centres unmarked)	-8.101	0.471	-4.063	2.941	0.5291	11.31
O=C(O)C(F)(F)F.O=C(O)C(F)(F)F.c1cncc(OCC2CN(Cc3nccs3)Cc3nccn3C2)c1 (centres unmarked)	-	-	-	-	-	5.331
CCN(CC(F)(F)F)C(=O)C1CCCN(Cc2ccno2)C1 (centres unmarked)	-0.6294	3.803	4.414	36.67	7.792	19.42
CC(C)C[C@H](N)c1nnc(SCC(N)=O)o1	2.452	1.516	5.147	14.58	7.292	-
CCOc1c(F)cccc1C(=O)N(C)CCc1ccccn1	5.698	-2.126	-3.317	-7.865	0.5181	35.67
O=C1CC(N(C(=O)c2ccccc2Br)C2CC2)C(=O)N1 (centres unmarked)	-10.65	5.34	8.801	19.48	-11.33	9.582
CCCN1CCN(Cc2nc3ccccc3[nH]2)[C@H]2CS(=O)(=O)C[C@H]21	-13.98	5.338	-4.163	19.74	-3.261	-
c1cnc2[nH]c(C3CCNCC3)c(CN3CCOCC3)c2c1	-0.169	3.707	-	9.375	7.447	16.22
O=C(c1c[nH]cn1)N1CCOCC2(C1)CN(c1ccccc1)C(=O)CO2 (centres unmarked)	-27.47	2.43	-3.28	18.06	8.571	-
c1cncc(COC2COC3(CCN(c4cnccn4)CC3)C2)c1 (centres unmarked)	10.91	-2.965	0.7752	22.81	-1.075	-
CN(CC(=O)NC1CC1)S(=O)(=O)c1ccc(F)cc1Cl	8.386	7.603	-0.6734	12.9	3.061	22.23
O=C(O)C(F)(F)F.O=C(O)C(F)(F)F.[H][C@@]12CCCO[C@]1([H])[C@@H](Oc1ccccn1)CN2c1nnc(C)s1	-	-	-	-	-	11.84
Cc1ncccc1CNc1ccc(OCCO)nc1	-2.529	6.982	1.868	15	7.792	-15.4
Cn1ccc2c(-c3ccc(NCCO)nn3)ccnc21	-2.778	2.447	-1.767	18.42	6.145	29.1
CC(C)Oc1ncccc1CNC(=O)C1CCCN(C(=O)C2CC2)C1 (centres unmarked)	10.35	-1.807	-0.7862	15.2	0.3802	-16.78
Cn1cnc2c1C(COCC1CC1)CN(Cc1ccc3c(c1)OCO3)C2.O=C(O)C(F)(F)F.O=C(O)C(F)(F)F (centres unmarked)	-	-	-	-	-	-6.653
N#Cc1cccc(C(=O)N2CC[C@H]3[C@H]2CCN3CC2CCOCC2)c1	12.2	-3.455	2.502	17	8.163	-
Cc1ccc2c(n1)N(CCn1cccn1)CCN(C(=O)CC1CC1)C2.O=C(O)C(F)(F)F	-	-	-	-	-	46.37
CC(C)N1C[C@@H]2OCC(=O)N(Cc3ccccc3)[C@@H]2C1	-8.784	3.517	-1.297	8.108	-4.478	-
O=C(O)C(F)(F)F.O=C(O)C(F)(F)F.O=S(=O)(NCC1OCCc2cn(Cc3ccccn3)nc21)C1CC1 (centres unmarked)	-	-	-	-	-	10.22
O=C(c1ccc[nH]1)N1Cc2nccn2CC(COc2cccnc2)C1 (centres unmarked)	-12.65	-1.227	18.71	-4.167	-1.905	-0.8586
CC(C)CN1C[C@H]2C[C@H](C(=O)NC3CCC3)[C@@H](C1)O2	-2.114	5.382	-	15.09	8.889	-
Cc1ccccc1CN(Cc1ccccn1)C(=O)CNS(C)(=O)=O	-5.86	3.647	-2.204	14.52	4.545	21.32
CC(C)C(C)N(C(=O)Cn1nc2n(c1=O)CCCCC2)C1CC1 (centres unmarked)	-7.158	0.2465	-1.584	14.29	5.941	14.96
Cc1nnc([C@@]23CCO[C@@H]2CCN(Cc2nccs2)C3)o1	-1.349	3.844	-	7.921	-2.513	-
O=C(O)C(F)(F)F.[H][C@@]12CCCO[C@]1([H])[C@H](NC(=O)c1cnoc1C)CN(c1ncccn1)C2	-	-	-	-	-	6.024
CC(NC(=O)c1cccs1)C(=O)NS(=O)(=O)c1ccc(C#N)cc1 (centres unmarked)	-12.37	-1.3	-2.963	4.444	3.571	18.01
CC(C)c1nc2n(n1)CC(NCc1nc(-c3ccsc3)no1)CC2 (centres unmarked)	-15.25	4.872	3.336	9.917	-2.521	15.68
CCCc1nc(CN2CCCC2Cn2cncn2)no1 (centres unmarked)	-18.89	-0.5097	-2.13	8.772	4.298	-5.199
CC1(C)[C@H](Cc2cc(CN3CCOCC3)on2)C[C@@H]1NC(=O)C1CCC1	7.513	-5.122	0.4647	-8.333	1.493	-10.12
O=S(=O)(CC1CCCCO1)Nc1cnn(Cc2ccccc2)c1 (centres unmarked)	-0.5137	-1.728	1.709	20.72	3.333	-2.178
CCc1ccc(C2CCCN2C(=O)NCC(=O)NCC(C)C)o1 (centres unmarked)	-11.74	-1.823	-1.145	-9.677	2.976	-17.35
CN(C)c1cc2c(nn1)CCN(C(=O)C1Cc3ccccc3O1)C2 (centres unmarked)	-18.94	-0.7909	17.06	9.091	5.263	16.39
CC1CCN(C(=O)c2cccc3ncccc23)CC1	4.371	-0.4426	-3.125	20.27	1.132	9.564
CC(=O)NCc1ccc(C(=O)N2CCCC(n3cncn3)C2)o1 (centres unmarked)	-7.434	-6.254	3.441	-7.08	3.509	-16.64
Cc1cccc2nc(CSCC(=O)Nc3nnc(C(C)C)s3)cc(=O)n12	-0.983	-0.572	1.357	10.96	7	5.587
[H][C@@]12CCCO[C@]1([H])[C@@H](N(C)Cc1cncnc1)CN2C(=O)COC	-	-	-	-	-	25.88
C=C(C)CN1CCC(Nc2nc(C)ns2)CC1	0.9818	7.654	-4.46	20.59	5.82	17.84
CCN1CCN(c2ccc(CNC(=O)Cc3c(C)noc3C)cn2)CC1	-21.46	2.864	-3.159	15.52	5.085	33.44
CN1CCN(c2ccccc2CNC(=O)CSC(F)(F)F)CC1	-5.868	3.65	-0.722	15.71	7.447	4.579
Cc1c(C(C)NC2CCN(C(C)C)CC2)cnn1-c1ccc(F)cc1F (centres unmarked)	-5.311	-0.4305	-1.559	0	9.497	61.65
O=C(O)c1ccc(=O)n(CC(c2ccc(Cl)cc2)N2CCOCC2)c1 (centres unmarked)	20.93	1.067	-7.049	11.59	8.333	3.532

3 of the entries, repeated:

structure,ClpP1P2,PfKRS1,MtTrpRS,LiHisRS,TcHisRS,Leishmania in macrophages
CC(C)Oc1ncccc1CNC(=O)C1CCCN(C(=O)C2CC2)C1 (centres unmarked),10.35,-1.807,-0.7862,15.2,0.3802,-16.78
Cn1ccc2c(-c3ccc(NCCO)nn3)ccnc21,-2.778,2.447,-1.767,18.42,6.145,29.1
O=C(O)C(F)(F)F.O=C(O)C(F)(F)F.[H][C@@]12CCCO[C@]1([H])[C@@H](Oc1ccccn1)CN2c1nnc(C)s1,-,-,-,-,-,11.84

Data taken from ChEMBL document CHEMBL3988442, “University of Dundee, Small-Polar-MMV Screening Library” (2021).